From publication PMC7955032 come the findings set out here.

Results are given in words; binding and its absence hold for the method and conditions named. In cells and extracts the contact can be indirect. Some entries that bind do so weakly or less than the wild type.

In this assay the target is Flag-tagged wild-type mouse RIPK3 (mouse), Q9QZL0. Kind of assay: co-IP; HEK293T co-transfected with mouse RIPK1 and Flag-tagged mouse RIPK3 (or mutants), lysed 36 h later (25 mM Hepes-NaOH pH 7.5, 150 mM NaCl, 1% Triton, 10% glycerol), anti-Flag magnetic beads overnight at 4 °C, blot with anti-RIPK1. As to conditions: remark: other sources report otherwise.

B1: mouse RIPK1 (receptor interacting protein kinase 1), Q60855 1-656 (protein)
chain: MQPDMSLDNIKMASSDLLEKTDLDSGGFGKVSLCYHRSHGFVILKKVYTGPNRAEYNEVLLEEGKMMHRLRHSRVVKLLGIIIEEGNYSLVMEYMEKGNLMHVLKTQIDVPLSLKGRIIVEAIEGMCYLHDKGVIHKDLKPENILVDRDFHIKIADLGVASFKTWSKLTKEKDNKQKEVSSTTKKNNGGTLYYMAPEHLNDINAKPTEKSDVYSFGIVLWAIFAKKEPYENVICTEQFVICIKSGNRPNVEEILEYCPREIISLMERCWQAIPEDRPTFLGIEEEFRPFYLSHFEEYVEEDVASLKKEYPDQSPVLQRMFSLQHDCVPLPPSRSNSEQPGSLHSSQGLQMGPVEESWFSSSPEYPQDENDRSVQAKLQEEASYHAFGIFAEKQTKPQPRQNEAYNREEERKRRVSHDPFAQQRARENIKSAGARGHSDPSTTSRGIAVQQLSWPATQTVWNNGLYNQHGFGTTGTGVWYPPNLSQMYSTYKTPVPETNIPGSTPTMPYFSGPVADDLIKYTIFNSSGIQIGNHNYMDVGLNSQPPNNTCKEESTSRHQAIFDNTTSLTDEHLNPIRENLGRQWKNCARKLGFTESQIDEIDHDYERDGLKEKVYQMLQKWLMREGTKGATVGKLAQALHQCCRIDLLNHLIRASQS
On to B1, for which the binding result was “binds”.
